Test [1] addresses T1, Mdf1p-3HA (S. cerevisiae) (UniProt P25585).
T1 sequence: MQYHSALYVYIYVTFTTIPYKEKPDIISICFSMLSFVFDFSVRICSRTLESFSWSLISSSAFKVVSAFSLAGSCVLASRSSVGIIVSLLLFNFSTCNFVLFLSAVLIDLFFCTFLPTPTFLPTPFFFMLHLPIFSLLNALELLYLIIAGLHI
Kind of test: co-IP; lysate of yeast overexpressing HA-tagged Mdf1p (lag phase) precipitated with anti-HA antibody and protein-G agarose; western blot with a Snf1p antibody; wild-type cells as negative control; lysis buffer 50 mM Tris-HCl pH 7.5, 150 mM NaCl, 0.2% NP-40, 4°C. (In general: In western blotting, separated proteins are transferred to a membrane and probed.)

The target in test [2] is T2, Mdf1p fused to the DNA-binding domain of Gal4 (DB) (S. cerevisiae) (UniProt P25585).
T2 sequence: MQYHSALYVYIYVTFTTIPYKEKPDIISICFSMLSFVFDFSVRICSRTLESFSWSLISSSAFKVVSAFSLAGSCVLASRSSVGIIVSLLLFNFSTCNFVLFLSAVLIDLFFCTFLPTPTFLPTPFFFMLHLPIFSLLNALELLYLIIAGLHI
Kind of test: two-hybrid; Gal4 DB-Mdf1p and Gal4 AD-Snf1p co-transformed into strain Y190; selection on SD-Trp-Leu-His, X-gal; plasmids transformed separately as negative controls.

Results are given in words; binding and its absence hold for the method and conditions named. For some assays here: In cells and extracts the contact can be indirect. Some entries that bind do so weakly or less than the wild type. For some assays here: Where a sequence is shown, tags or fusion partners need not be part of it.

Two molecules from paper PMC4250933 can be followed below.

B1: Snf1p (protein, UniProt P06782 1-633)
chain: MSSNNNTNTAPANANSSHHHHHHHHHHHHHGHGGSNSTLNNPKSSLADGAHIGNYQIVKTLGEGSFGKVKLAYHTTTGQKVALKIINKKVLAKSDMQGRIEREISYLRLLRHPHIIKLYDVIKSKDEIIMVIEYAGNELFDYIVQRDKMSEQEARRFFQQIISAVEYCHRHKIVHRDLKPENLLLDEHLNVKIADFGLSNIMTDGNFLKTSCGSPNYAAPEVISGKLYAGPEVDVWSCGVILYVMLCRRLPFDDESIPVLFKNISNGVYTLPKFLSPGAAGLIKRMLIVNPLNRISIHEIMQDDWFKVDLPEYLLPPDLKPHPEEENENNDSKKDGSSPDNDEIDDNLVNILSSTMGYEKDEIYESLESSEDTPAFNEIRDAYMLIKENKSLIKDMKANKSVSDELDTFLSQSPPTFQQQSKSHQKSQVDHETAKQHARRMASAITQQRTYHQSPFMDQYKEEDSTVSILPTSLPQIHRANMLAQGSPAASKISPLVTKKSKTRWHFGIRSRSYPLDVMGEIYIALKNLGAEWAKPSEEDLWTIKLRWKYDIGNKTNTNEKIPDLMKMVIQLFQIETNNYLVDFKFDGWESSYGDDTTVSNISEDEMSTFSAYPFLHLTTKLIMELAVNSQSN
As to B1, in test [1], the binding result is “binds”.

B2: Snf1p fused to the activation domain of Gal4 (AD) (protein, UniProt P06782 1-633)
chain: MSSNNNTNTAPANANSSHHHHHHHHHHHHHGHGGSNSTLNNPKSSLADGAHIGNYQIVKTLGEGSFGKVKLAYHTTTGQKVALKIINKKVLAKSDMQGRIEREISYLRLLRHPHIIKLYDVIKSKDEIIMVIEYAGNELFDYIVQRDKMSEQEARRFFQQIISAVEYCHRHKIVHRDLKPENLLLDEHLNVKIADFGLSNIMTDGNFLKTSCGSPNYAAPEVISGKLYAGPEVDVWSCGVILYVMLCRRLPFDDESIPVLFKNISNGVYTLPKFLSPGAAGLIKRMLIVNPLNRISIHEIMQDDWFKVDLPEYLLPPDLKPHPEEENENNDSKKDGSSPDNDEIDDNLVNILSSTMGYEKDEIYESLESSEDTPAFNEIRDAYMLIKENKSLIKDMKANKSVSDELDTFLSQSPPTFQQQSKSHQKSQVDHETAKQHARRMASAITQQRTYHQSPFMDQYKEEDSTVSILPTSLPQIHRANMLAQGSPAASKISPLVTKKSKTRWHFGIRSRSYPLDVMGEIYIALKNLGAEWAKPSEEDLWTIKLRWKYDIGNKTNTNEKIPDLMKMVIQLFQIETNNYLVDFKFDGWESSYGDDTTVSNISEDEMSTFSAYPFLHLTTKLIMELAVNSQSN
With B2, the binding entry in test [2] is listed as “binds”.
